PubChem BioAssay AID1259424 – University of Nebraska Medical Center | 2018
Aim: 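Find knockdowns that reproduce the expression shifts seen after KSR1 loss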 (primary screen). Cells: human HCT116 colon cancer cells. Knock-down reagent: siRNA pool against human genes, 50 nM. Measured: 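Six signature mRNAs by branched-DNA multiplex assay, scaled to two housekeeping genes and non-targeting median, log2; matched to mean KSR1 knockdown profile by Pearson correlation and euclidean distance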. Direction: mean correlation with KSR1 profile and KSR1 correlation: higher = expression change more like KSR1 knockdown; mean distance from KSR1 profile: higher = expression change less like KSR1 knockdown.
The whole screen tested about 14,000 reagents; shown is a part drawn at random. 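Higher correlation or smaller distance means closer resemblance to KSR1 loss; control wells, including KSR1 knockdowns, recur on many plates.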 Reagents against one gene are numbered here. Further read-outs or replicates are left out here. Reagent sequences are not shown. Not stated in the record: the time to read-out.

| gene | reagent | mean correlation with KSR1 profile | mean distance from KSR1 profile | KSR1 correlation, replicate 1 |
| --- | --- | --- | --- | --- |
| SPRYD3 (GeneID 84926) | 1 | 0.388 | 1.92 | 0.273 |
| PTTG2 (GeneID 10744) | 1 | 0.532 | 1.94 | 0.667 |
| SLC6A9 (GeneID 6536) | 1 | -0.301 | 2.2 | -0.43 |
| MAP9 (GeneID 79884) | 1 | 0.39 | 2.59 | 0.308 |
| RADIL (GeneID 55698) | 1 | 0.624 | 0.961 | 0.405 |
| SULT1C2 (GeneID 6819) | 1 | -0.193 | 1.49 | -0.000457 |
| SGSH (GeneID 6448) | 1 | 0.0329 | 2.77 | 0.0279 |
| GSR (GeneID 2936) | 1 | -0.248 | 2.36 | -0.251 |
| CIRBP (GeneID 1153) | 1 | 0.785 | 0.729 | 0.741 |
| CPSF3 (GeneID 51692) | 1 | -0.265 | 3.78 | 0.0553 |
| SERPINB10 (GeneID 5273) | 1 | 0.279 | 1.27 | 0.445 |
| RNASE7 (GeneID 84659) | 1 | 0.868 | 1.1 | 0.788 |
| PROKR2 (GeneID 128674) | 1 | 0.68 | 3.17 | 0.724 |
| CRY2 (GeneID 1408) | 1 | -0.312 | 3.09 | -0.399 |
| MMP1 (GeneID 4312) | 1 | 0.163 | 1.93 | 0.207 |
| ADO (GeneID 84890) | 1 | 0.859 | 0.863 | 0.621 |
| ITIH5 (GeneID 80760) | 1 | 0.626 | 3.25 | 0.661 |
| ITIH5 (GeneID 80760) | 2 | 0.912 | 3.15 | 0.876 |
| ADAMTSL2 (GeneID 9719) | 1 | -0.303 | 2.69 | -0.0734 |
| KIAA0586 (GeneID 9786) | 1 | -0.111 | 2.88 | 0.0305 |
| TECR (GeneID 9524) | 1 | 0.101 | 2.2 | 0.076 |
| PTPN12 (GeneID 5782) | 1 | -0.25 | 2.25 | -0.362 |
| RAP2B (GeneID 5912) | 1 | -0.0527 | 2.01 | -0.331 |
| TEKT1 (GeneID 83659) | 1 | -0.0625 | 1.99 | 0.112 |
| KRT19 (GeneID 3880) | 1 | -0.306 | 1.78 | -0.134 |
| PIK3C2B (GeneID 5287) | 1 | 0.645 | 2.16 | 0.806 |

Look-ups from above.
SULT1C2 (GeneID 6819), mean correlation with KSR1 profile: -0.193
Value for CIRBP (GeneID 1153) in “mean distance from KSR1 profile”: 0.729
MAP9 (GeneID 79884), mean correlation with KSR1 profile → 0.39
CRY2 (GeneID 1408), mean correlation with KSR1 profile = -0.312
Under “mean distance from KSR1 profile”, RNASE7 (GeneID 84659) reads 1.1

More reagents:
| gene | reagent | mean correlation with KSR1 profile | mean distance from KSR1 profile | KSR1 correlation, replicate 1 |
| --- | --- | --- | --- | --- |
| GP5 (GeneID 2814) | 1 | 0.547 | 2.71 | 0.563 |
| CLDN3 (GeneID 1365) | 1 | 0.0692 | 3.97 | 0.0504 |
| FIP1L1 (GeneID 81608) | 1 | -0.107 | 3.19 | -0.248 |
| CUBN (GeneID 8029) | 1 | -0.142 | 1.61 | 0.176 |
| TRIM23 (GeneID 373) | 1 | -0.0904 | 1.27 | -0.134 |
| ONECUT1 (GeneID 3175) | 1 | -0.366 | 2.79 | -0.0956 |
| CDK19 (GeneID 23097) | 1 | 0.234 | 3.24 | 0.0994 |
| MLYCD (GeneID 23417) | 1 | 0.0612 | 1.84 | -0.0375 |
| GSTZ1 (GeneID 2954) | 1 | 0.437 | 0.894 | 0.579 |
| SPINK1 (GeneID 6690) | 1 | 0.705 | 1.7 | 0.692 |
| PSMC5 (GeneID 5705) | 1 | -0.555 | 4.27 | -0.558 |
| KHDC4 (GeneID 22889) | 1 | -0.567 | 1.64 | -0.206 |
| UBA1 (GeneID 7317) | 1 | 0.0811 | 2.92 | 0.171 |
| CTBS (GeneID 1486) | 1 | -0.125 | 3.87 | 0.146 |
| PALLD (GeneID 23022) | 1 | -0.105 | 1.8 | 0.0591 |
| MREG (GeneID 55686) | 1 | -0.533 | 3.49 | -0.671 |
| GABRA2 (GeneID 2555) | 1 | -0.631 | 2.2 | -0.43 |
| DOCK2 (GeneID 1794) | 1 | -0.453 | 1.43 | -0.335 |
| FOSL1 (GeneID 8061) | 1 | 0.126 | 3.05 | 0.0185 |
| SRSF4 (GeneID 6429) | 1 | 0.713 | 0.805 | 0.749 |
| DZIP3 (GeneID 9666) | 1 | -0.199 | 1.54 | 0.00128 |
| COL4A1 (GeneID 1282) | 1 | -0.498 | 1.71 | -0.377 |
| MED7 (GeneID 9443) | 1 | -0.273 | 4.09 | -0.21 |
| ZNF345 (GeneID 25850) | 1 | 0.0215 | 1.61 | -0.0505 |
